Measured values reported in the supplement of paper PMC4604168 (melanoma cell lines).
This is one part of the list. Many values rest on one well or one pass, so single values are uncertain.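 Cells were imaged in 1,536-well plates, and nuclei stained with an antibody against cleaved PARP were counted against all DNA-stained nuclei to give the apoptosis fraction. Screening doses were chosen to leave most cells alive, and resting and induced cleaved-PARP levels differ strongly between cell lines.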

How the values were obtained:
Assay in all cases: cleaved PARP positive nuclei fraction relative to DMSO control; melanoma cells; higher = more apoptosis
Conditions in all cases: library dose: low library concentration; 72 h
501Mel = system: 501Mel
A101D = system: A101D
A2058 = system: A2058
A375 = system: A375
C32 = system: C32
CBRC008 = system: CBRC008 (line from a melanoma biopsy)
CBRC014 = system: CBRC014 (line from a melanoma biopsy)
CBRC016 = system: CBRC016 (line from a melanoma biopsy)
CBRC017 = system: CBRC017 (line from a melanoma biopsy)
CBRC034 = system: CBRC034 (line from a melanoma biopsy)
COLO792 = system: COLO792
COLO800 = system: COLO800
COLO829 = system: COLO829
G361 = system: G361
IPC-298 = system: IPC-298
IST-MEL1 = system: IST-MEL1
LB2518-MEL = system: LB2518-MEL
LOXIMVI = system: LOXIMVI
MEL-HO = system: MEL-HO

| SMILES | cleaved PARP positive nuclei fraction (501Mel) | cleaved PARP positive nuclei fraction (A101D) | cleaved PARP positive nuclei fraction (A2058) | cleaved PARP positive nuclei fraction (A375) | cleaved PARP positive nuclei fraction (C32) | cleaved PARP positive nuclei fraction (CBRC008) | cleaved PARP positive nuclei fraction (CBRC014) | cleaved PARP positive nuclei fraction (CBRC016) | cleaved PARP positive nuclei fraction (CBRC017) | cleaved PARP positive nuclei fraction (CBRC034) | cleaved PARP positive nuclei fraction (COLO792) | cleaved PARP positive nuclei fraction (COLO800) | cleaved PARP positive nuclei fraction (COLO829) | cleaved PARP positive nuclei fraction (G361) | cleaved PARP positive nuclei fraction (IPC-298) | cleaved PARP positive nuclei fraction (IST-MEL1) | cleaved PARP positive nuclei fraction (LB2518-MEL) | cleaved PARP positive nuclei fraction (LOXIMVI) | cleaved PARP positive nuclei fraction (MEL-HO) |
| --- | --- | --- | --- | --- | --- | --- | --- | --- | --- | --- | --- | --- | --- | --- | --- | --- | --- | --- | --- |
| O=C(Nc1cc(C(F)(F)F)cc(C(F)(F)F)c1)c1cc(Cl)ccc1O + NC(=O)c1ccc(N(C(N)=O)c2c(F)cccc2F)nc1-c1ccc(F)cc1F [VX702] (first compound 0.016 µM, partner dose 0.4 µM) | 60% | 170% | 64.4% | 82.3% | 71.7% | 97.2% | 95.9% | 191% | 124% | 27.8% | 74.3% | 71.6% | 126% | 118% | 133% | 62.9% | 43.2% | 102% | 61.2% |
| Cc1ccc(Nc2nccc(N(C)c3ccc4c(C)n(C)nc4c3)n2)cc1S(N)(=O)=O [Pazopanib] + CN(c1ncccc1CNc1nc(Nc2ccc3c(c2)CC(=O)N3)ncc1C(F)(F)F)S(C)(=O)=O [PF562271] (first compound 0.4 µM, partner dose 0.08 µM) | 141% | 53.4% | 86.9% | 121% | 74.2% | 40.3% | 96% | 93.3% | 84.2% | 28.2% | 64.1% | 82.6% | 145% | 68.3% | 50.4% | 57% | 100% | 81.2% | 62.5% |
| N#CC[C@H](C1CCCC1)n1cc(-c2ncnc3[nH]ccc23)cn1 [ruxolitinib] + COCC[n+]1c2c(n(Cc3cnccn3)c1C)C(=O)c1ccccc1C2=O [YM155] (first compound 1 µM, partner dose 0.0004 µM) | 75.6% | 82.8% | 119% | 63.7% | 80.9% | 416% | 80.9% | 175% | 117% | 34.9% | 85.2% | 63.8% | 94.5% | 121% | 47.2% | 67.6% | 120% | 51.2% | 34.8% |
| O=C(/C=C/c1cccnc1)NCCCCC1CCN(C(=O)c2ccccc2)CC1 + CCCCCCCCc1ccc(CCC(N)(CO)CO)cc1 [fingolimod] (first compound 0.01 µM, partner dose 2 µM) | 148% | 200% | 95.9% | 219% | 82.9% | 4030% | 109% | 797% | 527% | 1460% | 616% | 299% | 358% | 4120% | 314% | 45.7% | 132% | 240% | 132% |
| COc1cc([C@@H]2c3cc4c(cc3[C@@H](O[C@@H]3O[C@@H]5CO[C@@H](C)O[C@H]5[C@H](O)[C@H]3O)[C@H]3COC(=O)[C@H]23)OCO4)cc(OC)c1O [etoposide] + C[C@@H](Oc1cc(-c2cnn(C3CCNCC3)c2)cnc1N)c1c(Cl)ccc(F)c1Cl [Crizotinib] (first compound 0.02 µM, partner dose 0.2 µM) | 98.6% | 141% | 165% | 210% | 202% | 102% | 102% | 78.4% | 101% | 65.9% | 131% | 87.9% | 164% | 133% | 96.7% | 132% | 105% | 149% | 28% |
| O=c1[nH]nc(Sc2ncc([N+](=O)[O-])s2)n1-c1ccc2c(c1)OCCO2 + CCCCCCCCc1ccc(CCC(N)(CO)CO)cc1 [fingolimod] (first compound 0.2 µM, partner dose 2 µM) | 168% | 87.8% | 72.3% | 100% | 146% | 65.4% | 87.2% | 143% | 124% | 83.8% | 66.9% | 79.3% | 128% | 107% | 87.9% | 66.3% | 50% | 38.5% | 27% |
| CC[C@]1(O)C[C@H]2CN(CCc3c([nH]c4ccccc34)[C@@](C(=O)OC)(c3cc4c(cc3OC)N(C=O)[C@H]3[C@@](O)(C(=O)OC)[C@H](OC(C)=O)[C@]5(CC)C=CCN6CC[C@]43[C@@H]65)C2)C1 [vincristine] + O=C(/C=C/c1cccnc1)NCCCCC1CCN(C(=O)c2ccccc2)CC1 [FK866] (first compound 0.0001 µM, partner dose 0.01 µM) | 36.4% | 171% | 570% | 83.3% | 86.5% | 2900% | 124% | 588% | 842% | 1300% | 279% | 258% | 300% | 1980% | 180% | 184% | 128% | 69.5% | 70.4% |
| N#CC[C@H](C1CCCC1)n1cc(-c2ncnc3[nH]ccc23)cn1 [ruxolitinib] + Nc1cccc2c1CN(C1CCC(=O)NC1=O)C2=O [lenalidomide] (first compound 1 µM, partner dose 1 µM) | 183% | 95.8% | 69.6% | 71.2% | 80.2% | 205% | 92.2% | 102% | 173% | 116% | 55.6% | 71.2% | 83.9% | 101% | 43.4% | 36.8% | 74.3% | 46.8% | 77.4% |
| COc1cc([C@@H]2c3cc4c(cc3[C@@H](O[C@@H]3O[C@@H]5CO[C@@H](C)O[C@H]5[C@H](O)[C@H]3O)[C@H]3COC(=O)[C@H]23)OCO4)cc(OC)c1O [etoposide] + Cc1nc(Nc2ncc(C(=O)Nc3c(C)cccc3Cl)s2)cc(N2CCN(CCO)CC2)n1 [dasatanib] (first compound 0.02 µM, partner dose 0.004 µM) | 89.5% | 206% | 207% | 149% | 189% | 52.3% | 108% | 150% | 159% | 345% | 131% | 202% | 147% | 130% | 172% | 35.4% | 131% | 76% | 87.3% |
| O=c1[nH]nc(Sc2ncc([N+](=O)[O-])s2)n1-c1ccc2c(c1)OCCO2 + COc1ccc(Cl)c(Nc2nc3ccccc3nc2NS(=O)(=O)c2cccc(NC(=O)C(C)(C)N)c2)c1 [XL147] (first compound 0.2 µM, partner dose 0.8 µM) | 144% | 75.7% | 102% | 119% | 250% | 287% | 108% | 288% | 137% | 120% | 85% | 195% | 155% | 108% | 92% | 135% | 74.2% | 89% | 117% |
| CCCCCCCCCCCCCCCCCCOP(=O)([O-])OC1CC[N+](C)(C)CC1 [Perifosine] + CNC(=O)c1cc(Oc2ccc(NC(=O)Nc3ccc(Cl)c(C(F)(F)F)c3)cc2)ccn1 [sorafenib] (first compound 0.4 µM, partner dose 0.4 µM) | 79.9% | 84.3% | 104% | 73.6% | 83.5% | 28.6% | 113% | 100% | 106% | 118% | 131% | 200% | 73.2% | 157% | 63.8% | 122% | 136% | 119% | 59% |
| Cc1cc(Nc2cc(N3CCN(C)CC3)nc(Sc3ccc(NC(=O)C4CC4)cc3)n2)n[nH]1 [Tozasertib] + C[C@@H](Oc1cc(-c2cnn(C3CCNCC3)c2)cnc1N)c1c(Cl)ccc(F)c1Cl [Crizotinib] (first compound 0.006 µM, partner dose 0.2 µM) | 98.2% | 92.2% | 224% | 37% | 83.8% | 90.5% | 97.6% | 102% | 75.1% | 69.1% | 171% | 120% | 155% | 147% | 87.4% | 44.7% | 134% | 84.8% | 72.4% |
| Cc1cc(Nc2cc(N3CCN(C)CC3)nc(Sc3ccc(NC(=O)C4CC4)cc3)n2)n[nH]1 [Tozasertib] + CS(=O)(=O)CCNCc1ccc(-c2ccc3ncnc(Nc4ccc(OCc5cccc(F)c5)c(Cl)c4)c3c2)o1 [lapatinib] (first compound 0.006 µM, partner dose 0.8 µM) | 53.1% | 144% | 65.9% | 70.8% | 94.4% | 118% | 95.5% | 147% | 53.1% | 82.1% | 69.8% | 187% | 54.3% | 79.6% | 42.1% | 64.6% | 110% | 147% | 41.7% |
| O=C(/C=C/c1cccnc1)NCCCCC1CCN(C(=O)c2ccccc2)CC1 + O=S(=O)(c1ccccc1)N(CC(F)(F)F)c1ccc(C(O)(C(F)(F)F)C(F)(F)F)cc1 [T0901317] (first compound 0.01 µM, partner dose 1.4 µM) | 87.3% | 68.8% | 119% |  | 279% | 1900% | 117% | 957% | 365% |  | 355% | 93.9% | 174% | 1400% | 152% | 175% | 42.9% | 102% |  |
| CC[C@]1(O)C[C@H]2CN(CCc3c([nH]c4ccccc34)[C@@](C(=O)OC)(c3cc4c(cc3OC)N(C=O)[C@H]3[C@@](O)(C(=O)OC)[C@H](OC(C)=O)[C@]5(CC)C=CCN6CC[C@]43[C@@H]65)C2)C1 [vincristine] + O=C(Nc1cc(C(F)(F)F)cc(C(F)(F)F)c1)c1cc(Cl)ccc1O [IMD0354] (first compound 0.0001 µM, partner dose 0.016 µM) | 48% | 158% | 1430% | 165% | 91.5% | 194% | 105% | 55.8% | 146% | 43.9% | 96.7% | 71.4% | 231% | 174% | 125% | 205% | 67.9% | 168% | 112% |
